From US20040053928A1, “Quinoline derivatives as antibacterials” (priority 2000, published 2004)
Some entries share one result that the patent states for a list of compounds. At least one compound was matched to its structure with a doubt left.

Tested on: S. aureus Oxford, S. aureus WCUH29, S. pneumoniae 1629, S. pneumoniae N1387, S. pneumoniae ERY 2, E. faecalis 1, E. faecalis 7, H. influenzae Q1, H. influenzae …
Assay: MIC of test compounds against various organisms
Type: cell-based
Details: against one or more of the above range of gram positive and gram negative bacteria
Description: The MIC (μg/ml) of test compounds against various organisms was determined:
S. aureus Oxford, S. aureus WCUH29, S. pneumoniae 1629, S. pneumoniae N1387, S. pneumoniae ERY 2, E. faecalis 1, E. faecalis 7, H. influenzae Q1, H. influenzae NEMC1, M. catarrhalis 1502, E. coil 7623, E.coli 120.

| SMILES | MIC |
| --- | --- |
| COc1ccc2nccc([C@@H](O)CN3CCC(NCCOc4cccnc4)CC3)c2c1.O=C(O)C(=O)O.O=C(O)C(=O)O [Example 59, 4-[2-(Pyridin-3-yloxy)-ethyl]amino-1-[2-(R)-hydroxy-2-(6-methoxyquinolin-4-yl)]ethylpiperidine dioxalate] | less than or equal to 2 μg/ml |
| COc1ccc2nccc([C@@H](O)CN3CCC(NC/C=C/c4ccccc4OC)CC3)c2c1.O=C(O)C(=O)O.O=C(O)C(=O)O (stereo in doubt) [Example 64, 4-[trans-1-(2-Methoxyphenyl)-3-propenyl]amino-1-[2-(R)-hydroxy-2-(6-methoxyquinolin-4-yl)]ethylpiperidine dioxalate] | less than or equal to 2 μg/ml |
| COc1ccc2nccc([C@@H](O)CN3CCC(NCCCc4ccccc4N)CC3)c2c1.O=C(O)C(=O)O.O=C(O)C(=O)O (stereo in doubt) [Example 55, 4-[trans-3-(2-Aminophenyl)propyl]amino-1-[2-(R)-hydroxy-2-(6-methoxyquinolin-4-yl)]ethylpiperidine dioxalate] | less than or equal to 2 μg/ml |
| COc1ccc2nccc([C@@H](O)CN3CCC(NCCOc4ncccn4)CC3)c2c1.O=C(O)C(=O)O.O=C(O)C(=O)O [Example 62, 4-[2-(Pyrimidin-2-yloxy)-ethyl]amino-1-[2-(R)-hydroxy-2-(6-methoxyquinolin-4-yl)]ethylpiperidine dioxalate] | less than or equal to 2 μg/ml |
| COc1ccc2nccc([C@@H](O)CN3CCC(NCC(=O)N(C)c4ccccc4)CC3)c2c1.O=C(O)C(=O)O.O=C(O)C(=O)O [Example 11, 2-{1-[(R)-2-Hydroxy-2-(6-methoxy-quinolinyl)-ethyl]-piperidin-4-ylamino}-N-methyl-N-phenyl-acetamide dioxalate] | less than or equal to 2 μg/ml |
| COc1ccc2nccc([C@@H](O)CN3CCC(NC/C=C/c4ccc(F)cc4)CC3)c2c1.O=C(O)C(=O)O.O=C(O)C(=O)O (stereo in doubt) [Example 63] | less than or equal to 0.25 μg/ml |
